SMILES strings stand for the structures. Structures can show the parent of a compound that is named as a salt. This is one part of the list. Rule as the data show it: active = 0.7 or more and inactive = the rest. Many values rest on one well or one pass, so single values are uncertain.

The test system of this experiment is MiaPaCa-2 CLSA-25. As to the kind of experiment: cell death relative to DMSO vehicle (fraction); higher = more cytotoxic. To be noted: 5 µM; treatment time 48 h; medium cystine 25 µM.
In the case of `O=C(O)CNC(=O)c1c(O)c2ccccc2n(Cc2ccccc2)c1=O`, the cell death is inactive: 0.574.

Consider `COC(=O)N[C@H](C(=O)N1CCC[C@H]1c1ncc(-c2ccc(-c3ccc(-c4cnc([C@@H]5CCCN5C(=O)[C@@H](NC(=O)OC)C(C)C)[nH]4)cc3)cc2)[nH]1)C(C)C` [Daclatasvir dihydrochloride], for which the cell death is inactive: 0.246.

For `O=C(Nc1ncc(SCCN2CCCC2)s1)[C@]1(c2ccc(S(=O)(=O)C3CC3)cc2)C[C@H]1C1CCCCC1`, the cell death is inactive: 0.0581.

For `Cn1c(=O)c2c(ncn2CC(=O)O)n(C)c1=O` [Theophylline-7-acetic acid], the cell death is inactive: 0.116.

As to `O=C[C@H](O)[C@@H](O)[C@H](O)CO` (racemic) [DL-Xylose], the cell death was inactive: 0.049.

Consider `CC(C)C[C@@H]1NC(=O)[C@@H](C(C)C)NC(=O)[C@@H]2CCCN2C(=O)[C@@H](CC(=O)O)NC(=O)[C@@H](Cc2c[nH]c3ccccc23)NC1=O`, for which the cell death was inactive: 0.172.

With `O=C(NCCS(=O)(=O)c1ccc(C(F)(F)F)cn1)c1ccc(Cl)cc1`, the cell death was inactive: 0.254.

For `CCCc1nn(C)c2c(=O)[nH]c(-c3cc(S(=O)(=O)N4CCN(C)CC4)ccc3OCC)nc12` [Sildenafil citrate], the cell death was inactive: 0.117.

As for `O=C(O)CSc1nnc(Br)n1-c1ccc(C2CC2)c2ccccc12` [Lesinurad], the cell death is inactive: 0.607.

In the case of `CCN[C@H]1CN(CCCOC)S(=O)(=O)c2sc(S(N)(=O)=O)cc21` [Brinzolamide], the cell death is inactive: 0.0634.

`Nc1c(Br)cc(Br)cc1CN[C@H]1CC[C@H](O)CC1` [Ambroxol]: the cell death is inactive: 0.183.
